Among the data in publication PMC6030168 are binding values, retold here.

Sequences of proteins named here, by UniProt entry; tags and fusion partners are left off. A change or cut given only in a name is not applied to a line headed by its entry. A line that says so, or that is headed by a name, gives the form on record, which may keep a tag or linker.
UniProt P35222: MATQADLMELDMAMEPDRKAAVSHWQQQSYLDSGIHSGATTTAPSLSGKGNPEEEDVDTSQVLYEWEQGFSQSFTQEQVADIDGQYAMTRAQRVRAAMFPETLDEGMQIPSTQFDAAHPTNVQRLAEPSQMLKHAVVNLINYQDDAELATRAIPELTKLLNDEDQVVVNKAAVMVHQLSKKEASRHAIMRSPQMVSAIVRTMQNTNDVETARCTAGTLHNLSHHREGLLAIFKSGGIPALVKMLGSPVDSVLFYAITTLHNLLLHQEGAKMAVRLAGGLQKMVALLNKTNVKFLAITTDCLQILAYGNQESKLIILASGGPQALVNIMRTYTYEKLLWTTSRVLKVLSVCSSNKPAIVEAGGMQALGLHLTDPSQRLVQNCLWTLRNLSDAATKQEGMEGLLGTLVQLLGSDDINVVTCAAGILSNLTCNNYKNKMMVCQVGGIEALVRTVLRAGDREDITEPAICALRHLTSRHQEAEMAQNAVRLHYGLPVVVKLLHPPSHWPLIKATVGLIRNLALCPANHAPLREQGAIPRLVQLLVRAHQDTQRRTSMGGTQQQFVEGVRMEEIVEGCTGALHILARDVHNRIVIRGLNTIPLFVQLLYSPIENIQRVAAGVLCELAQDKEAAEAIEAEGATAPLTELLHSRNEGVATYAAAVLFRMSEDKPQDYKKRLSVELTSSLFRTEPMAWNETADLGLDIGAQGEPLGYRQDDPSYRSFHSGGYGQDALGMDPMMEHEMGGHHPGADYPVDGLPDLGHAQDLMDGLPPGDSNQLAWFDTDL
LIM domain kinase (LIMK)2 (P53671-3, form named): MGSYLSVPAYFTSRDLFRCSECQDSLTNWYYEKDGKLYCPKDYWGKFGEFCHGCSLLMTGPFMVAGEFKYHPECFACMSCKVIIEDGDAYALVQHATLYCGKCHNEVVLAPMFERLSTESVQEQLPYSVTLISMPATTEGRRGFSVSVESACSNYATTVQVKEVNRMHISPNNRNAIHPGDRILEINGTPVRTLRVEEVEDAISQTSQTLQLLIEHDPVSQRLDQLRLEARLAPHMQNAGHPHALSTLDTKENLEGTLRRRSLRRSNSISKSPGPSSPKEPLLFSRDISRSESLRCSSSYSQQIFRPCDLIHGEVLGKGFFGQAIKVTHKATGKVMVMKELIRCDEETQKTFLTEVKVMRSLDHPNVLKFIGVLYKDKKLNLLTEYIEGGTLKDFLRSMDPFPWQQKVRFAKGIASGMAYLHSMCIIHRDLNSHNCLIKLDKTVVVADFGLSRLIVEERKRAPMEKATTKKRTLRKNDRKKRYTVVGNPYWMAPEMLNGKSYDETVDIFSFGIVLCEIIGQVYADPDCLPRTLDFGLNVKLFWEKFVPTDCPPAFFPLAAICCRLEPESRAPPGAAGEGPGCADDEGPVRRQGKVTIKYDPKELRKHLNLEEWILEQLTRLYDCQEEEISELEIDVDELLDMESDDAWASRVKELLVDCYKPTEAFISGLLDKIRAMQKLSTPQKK

The experiment has as its target β-catenin (human (endogenous in SW480)) (UniProt P35222). The experiment is described as follows: co-IP; co-immunoprecipitation in SW480 cells; details in the supplementary materials and methods.

These are yes or no findings as the source states them, for the method shown. Binding seen in cells or lysates may run through a third protein. Some entries that bind do so weakly or less than the wild type.

On to “LIM domain kinase (LIMK)2 (from UniProt P53671-3 1-686)”, for which the binding result is on record as “binds”.
